Reference: article PMC10760247
These are yes or no findings as the source states them, for the method shown. Binding seen in cells or lysates may run through a third protein. These calls come from enrichment with a bait or labelling near it, and not all partners need be listed.

The chains behind the UniProt entries cited, without tags or fusion partners.
UniProt Q9WVA4: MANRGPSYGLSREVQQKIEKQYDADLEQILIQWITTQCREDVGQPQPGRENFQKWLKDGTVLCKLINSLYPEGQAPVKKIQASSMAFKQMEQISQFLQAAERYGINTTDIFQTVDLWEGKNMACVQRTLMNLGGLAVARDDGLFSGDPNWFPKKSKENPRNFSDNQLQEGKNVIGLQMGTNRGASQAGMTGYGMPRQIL

Target: T1, fatty-acid-binding protein 5 (FABP5) (mouse (endogenous in activated CD8+ T cells from C57BL/6J mice)) (UniProt Q05816)
T1 sequence: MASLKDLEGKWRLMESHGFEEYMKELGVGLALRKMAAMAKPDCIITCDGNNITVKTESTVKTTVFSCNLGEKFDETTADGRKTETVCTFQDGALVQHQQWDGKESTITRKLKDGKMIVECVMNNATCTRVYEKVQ
Experiment: affinity purification with mass spectrometry; lysate of activated mouse CD8+ T cells (Pierce IP Lysis Buffer), precleared with streptavidin Dynabeads; biotinylated goat anti-mouse FABP5 antibody or biotinylated goat IgG control overnight at 4°C, captured on Dynabeads MyOne Streptavidin T1; washed with PBS with 0.05% tween-20; eluted with 0.1M glycine HCl; LC-MS/MS

With “Transgelin 2 (TAGLN2) (from UniProt Q9WVA4 1-199)” as the substance, how does the binding read?
Its binding is “binds”.
